# Assay results taken from the supplement of paper PMC6411743.
# ± gives the standard deviation of the averaged measurements. Some of the results follow.
# What was measured:
# Assay in all cases: NP40-soluble protein abundance relative to vehicle (solubility fold change) (ratio); higher = more soluble protein in presence of GTP
# ISOC1 = molecular target: T1, ISOC1 (UniProt Q96CN7)
# T1 sequence (whole entry): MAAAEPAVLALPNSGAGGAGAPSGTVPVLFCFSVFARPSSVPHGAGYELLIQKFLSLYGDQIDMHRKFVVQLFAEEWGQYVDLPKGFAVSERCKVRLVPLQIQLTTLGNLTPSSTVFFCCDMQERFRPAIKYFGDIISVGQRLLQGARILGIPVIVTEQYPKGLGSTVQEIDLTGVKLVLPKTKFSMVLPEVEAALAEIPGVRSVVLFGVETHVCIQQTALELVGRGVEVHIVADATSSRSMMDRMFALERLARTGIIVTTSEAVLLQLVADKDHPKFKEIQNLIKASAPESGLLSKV
# In short: (§1)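 Data come from three independent experiments in which Dounce-homogenised Jurkat crude lysate was treated at eight concentrations from 0.1 to 10 mM. Treatment ran 10 min at room temperature and then 3 min at 37 °C, after which 0.8% NP40 and benzonase were added for 60 min at 4 °C before ultracentrifugation. The supernatant underwent TMT labelling and LC-MS/MS, and vsn-normalised intensities were expressed as fold change against the detergent-processed vehicle in each replicate.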
# NSMCE1 = molecular target: T2, NSMCE1 (UniProt Q8WV22)
# T2 sequence (whole entry): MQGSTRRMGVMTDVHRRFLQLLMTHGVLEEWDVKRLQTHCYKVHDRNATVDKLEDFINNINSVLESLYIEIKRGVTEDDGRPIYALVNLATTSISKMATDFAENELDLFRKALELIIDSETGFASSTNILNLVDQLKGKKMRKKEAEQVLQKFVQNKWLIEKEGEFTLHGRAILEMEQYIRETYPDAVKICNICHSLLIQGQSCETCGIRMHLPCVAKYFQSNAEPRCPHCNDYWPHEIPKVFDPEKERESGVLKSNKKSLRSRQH
# In short: as §1
# PINX1 = molecular target: T3, PINX1 (UniProt Q96BK5)
# T3 sequence (whole entry): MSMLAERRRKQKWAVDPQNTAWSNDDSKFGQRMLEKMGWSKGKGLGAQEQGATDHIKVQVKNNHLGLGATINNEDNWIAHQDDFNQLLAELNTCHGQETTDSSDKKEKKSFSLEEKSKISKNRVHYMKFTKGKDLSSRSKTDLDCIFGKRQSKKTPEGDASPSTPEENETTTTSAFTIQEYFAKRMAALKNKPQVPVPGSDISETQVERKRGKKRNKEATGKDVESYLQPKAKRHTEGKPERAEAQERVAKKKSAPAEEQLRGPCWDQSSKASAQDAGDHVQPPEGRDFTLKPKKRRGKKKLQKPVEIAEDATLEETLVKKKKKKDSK
# In short: as §1
# [1] = molecular target: T4, Q96I63 and related entries (UniProt Q96TA2)
# T4 sequence (whole entry): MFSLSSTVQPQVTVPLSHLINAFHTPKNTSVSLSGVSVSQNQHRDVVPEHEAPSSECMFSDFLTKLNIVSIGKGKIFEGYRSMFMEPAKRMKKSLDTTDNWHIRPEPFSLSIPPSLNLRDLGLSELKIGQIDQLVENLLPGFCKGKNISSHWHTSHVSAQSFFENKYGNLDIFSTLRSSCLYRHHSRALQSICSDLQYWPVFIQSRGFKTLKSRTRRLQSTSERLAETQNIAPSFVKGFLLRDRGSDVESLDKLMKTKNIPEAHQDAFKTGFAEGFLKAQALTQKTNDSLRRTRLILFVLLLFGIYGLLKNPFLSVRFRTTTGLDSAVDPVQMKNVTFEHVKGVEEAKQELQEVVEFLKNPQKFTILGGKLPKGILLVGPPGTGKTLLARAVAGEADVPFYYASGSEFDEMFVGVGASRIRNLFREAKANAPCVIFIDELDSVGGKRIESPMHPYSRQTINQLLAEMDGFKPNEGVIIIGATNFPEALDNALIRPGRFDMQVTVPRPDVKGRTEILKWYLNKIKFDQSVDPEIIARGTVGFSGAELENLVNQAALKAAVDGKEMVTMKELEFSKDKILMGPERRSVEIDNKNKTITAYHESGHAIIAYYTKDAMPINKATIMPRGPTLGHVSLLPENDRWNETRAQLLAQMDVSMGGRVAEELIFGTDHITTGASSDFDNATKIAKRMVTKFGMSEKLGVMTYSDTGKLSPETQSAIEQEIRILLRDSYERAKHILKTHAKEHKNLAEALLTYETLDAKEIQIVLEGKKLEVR
# In short: as §1
# RBM17 = molecular target: T5, RBM17 (UniProt Q96I25)
# T5 sequence (whole entry): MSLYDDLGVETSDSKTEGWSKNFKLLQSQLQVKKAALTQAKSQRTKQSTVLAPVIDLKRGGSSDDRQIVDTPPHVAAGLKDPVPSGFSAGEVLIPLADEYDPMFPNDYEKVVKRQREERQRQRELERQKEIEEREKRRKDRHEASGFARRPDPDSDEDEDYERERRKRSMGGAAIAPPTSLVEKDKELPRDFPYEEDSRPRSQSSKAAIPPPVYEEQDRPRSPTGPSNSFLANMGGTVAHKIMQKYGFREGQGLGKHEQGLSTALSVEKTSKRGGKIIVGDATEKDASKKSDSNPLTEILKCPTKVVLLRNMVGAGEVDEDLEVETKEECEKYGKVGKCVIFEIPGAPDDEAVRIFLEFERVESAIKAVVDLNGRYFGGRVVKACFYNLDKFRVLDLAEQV
# In short: as §1
# RNF25 = molecular target: T6, RNF25 (UniProt Q96BH1)
# T6 sequence (whole entry): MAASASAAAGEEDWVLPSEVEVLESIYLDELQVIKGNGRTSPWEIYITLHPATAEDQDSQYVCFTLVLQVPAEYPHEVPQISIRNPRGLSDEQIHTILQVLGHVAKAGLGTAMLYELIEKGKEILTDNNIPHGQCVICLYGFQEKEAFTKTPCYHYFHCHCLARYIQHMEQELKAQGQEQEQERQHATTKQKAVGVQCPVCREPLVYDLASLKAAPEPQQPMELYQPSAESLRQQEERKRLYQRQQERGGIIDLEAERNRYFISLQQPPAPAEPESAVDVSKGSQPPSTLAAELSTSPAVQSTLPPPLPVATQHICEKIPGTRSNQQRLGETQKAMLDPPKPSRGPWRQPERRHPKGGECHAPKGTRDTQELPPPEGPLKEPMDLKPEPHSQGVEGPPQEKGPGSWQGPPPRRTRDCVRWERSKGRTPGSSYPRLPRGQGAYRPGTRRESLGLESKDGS
# In short: as §1
compound,measurement,setting,value
Nc1nc2c(ncn2[C@@H]2O[C@H](COP(=O)(O)OP(=O)(O)OP(=O)(O)O)[C@@H](O)[C@H]2O)c(=O)[nH]1 [guanosine triphosphate],NP40-soluble protein abundance,ISOC1; concentration: 0.1mM,1.02 ± 0.12
same,NP40-soluble protein abundance,ISOC1; concentration: 0.5mM,0.985 ± 0.034
same,NP40-soluble protein abundance,ISOC1; concentration: 1mM,0.905 ± 0.058
same,NP40-soluble protein abundance,ISOC1; concentration: 2mM,0.8922 ± 0.0053
same,NP40-soluble protein abundance,ISOC1; concentration: 4mM,0.886 ± 0.039
same,NP40-soluble protein abundance,ISOC1; concentration: 6mM,0.8796 ± 0.0087
same,NP40-soluble protein abundance,ISOC1; concentration: 8mM,0.841 ± 0.089
same,NP40-soluble protein abundance,ISOC1; concentration: 10mM,0.823 ± 0.025
same,NP40-soluble protein abundance,NSMCE1; concentration: 0.1mM,0.998 ± 0.029
same,NP40-soluble protein abundance,NSMCE1; concentration: 0.5mM,0.96 ± 0.048
same,NP40-soluble protein abundance,NSMCE1; concentration: 1mM,1.01 ± 0.039
same,NP40-soluble protein abundance,NSMCE1; concentration: 2mM,0.996 ± 0.04
same,NP40-soluble protein abundance,NSMCE1; concentration: 4mM,1.011 ± 0.0064
same,NP40-soluble protein abundance,NSMCE1; concentration: 6mM,1 ± 0.029
same,NP40-soluble protein abundance,NSMCE1; concentration: 8mM,1 ± 0.029
same,NP40-soluble protein abundance,NSMCE1; concentration: 10mM,0.989 ± 0.025
same,NP40-soluble protein abundance,PINX1; concentration: 0.1mM,1.22 ± 0.065
same,NP40-soluble protein abundance,PINX1; concentration: 0.5mM,1.28 ± 0.074
same,NP40-soluble protein abundance,PINX1; concentration: 1mM,1.45 ± 0.033
same,NP40-soluble protein abundance,PINX1; concentration: 2mM,1.64 ± 0.093
same,NP40-soluble protein abundance,PINX1; concentration: 4mM,1.96 ± 0.15
same,NP40-soluble protein abundance,PINX1; concentration: 6mM,2.01 ± 0.21
same,NP40-soluble protein abundance,PINX1; concentration: 8mM,2.36 ± 0.13
same,NP40-soluble protein abundance,PINX1; concentration: 10mM,2.62 ± 0.26
same,NP40-soluble protein abundance,[1]; concentration: 0.1mM,1 ± 0.026
same,NP40-soluble protein abundance,[1]; concentration: 0.5mM,1.05 ± 0.048
same,NP40-soluble protein abundance,[1]; concentration: 1mM,1.01 ± 0.013
same,NP40-soluble protein abundance,[1]; concentration: 2mM,1.06 ± 0.086
same,NP40-soluble protein abundance,[1]; concentration: 4mM,1.11 ± 0.069
same,NP40-soluble protein abundance,[1]; concentration: 6mM,1.11 ± 0.074
same,NP40-soluble protein abundance,[1]; concentration: 8mM,1.07 ± 0.099
same,NP40-soluble protein abundance,[1]; concentration: 10mM,1.03 ± 0.046
same,NP40-soluble protein abundance,RBM17; concentration: 0.1mM,1.02 ± 0.051
same,NP40-soluble protein abundance,RBM17; concentration: 0.5mM,1.1 ± 0.046
same,NP40-soluble protein abundance,RBM17; concentration: 1mM,1.1 ± 0.066
same,NP40-soluble protein abundance,RBM17; concentration: 2mM,1.16 ± 0.097
same,NP40-soluble protein abundance,RBM17; concentration: 4mM,1.19 ± 0.12
same,NP40-soluble protein abundance,RBM17; concentration: 6mM,1.3 ± 0.14
same,NP40-soluble protein abundance,RBM17; concentration: 8mM,1.31 ± 0.18
same,NP40-soluble protein abundance,RBM17; concentration: 10mM,1.34 ± 0.23
same,NP40-soluble protein abundance,RNF25; concentration: 0.1mM,1.101 ± 0.0024
same,NP40-soluble protein abundance,RNF25; concentration: 0.5mM,1.1 ± 0.085
